Laboratory results: paper PMC8651671
Construct, isoform or probe ends are uncertain for at least one entry. No signal at the amounts used counts as a negative. Protein sequences can lack the tags named with them.

Target: T1, DhdR (GntR family regulator) (Achromobacter denitrificans NBRC 15125) (UniProt A0A6N0JVZ6)
T1 sequence (looked up, limits assumed): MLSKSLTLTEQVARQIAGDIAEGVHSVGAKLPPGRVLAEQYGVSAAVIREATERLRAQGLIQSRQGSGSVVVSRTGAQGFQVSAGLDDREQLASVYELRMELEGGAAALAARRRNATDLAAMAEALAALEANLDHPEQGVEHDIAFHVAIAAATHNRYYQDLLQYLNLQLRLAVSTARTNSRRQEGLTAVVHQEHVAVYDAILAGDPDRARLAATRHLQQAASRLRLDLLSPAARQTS
Assay: EMSA
Conditions: up to 100 nM DhdR; EMSA/footprint: 10 mM Tris-HCl pH 7.4, 50 mM KCl, 0.5 mM EDTA, 10% glycerol, 1 mM DTT, 30 C; recombinant protein; protein details: His6 (pETDuet-1); probe letters rebuilt from the primers and the genome

CCATCCGGAACAGGGCGTCGAGCACGACATCGCCTTCCACGTCGCCATCGCCGCCGCCACGCACAACCGTTATTACCAGGACCTGCTGCAGTACCTGAACCTGCAGCTGCGCCTGGCCGTCAGCACCGCGCGCACCAACAGCCGCCGTCAGGAGGGCCTGACCGCGGTGGTGCACCAGGAACACGTGGCCGTCTACGACG (double strand) [internal fragment of dhdR (negative control)]
binding result: no binding
